Measured values as given in the supplement of paper PMC11060735.
Structures can show the parent of a compound that is named as a salt. ± gives the standard deviation of the averaged measurements. In all, about 1,800 compounds were measured (“GFP- (p16Ink4a-) cell count relative to negative-control wells”: median about 0.99, lowest 2% from about 0.5 on). This is one part of the list.

These compounds were tested on mouse p16Ink4a+/- lung fibroblasts (INKBRITE, bleomycin-injured) (assay: GFP- (p16Ink4a-) cell count relative to negative-control wells (fold of vehicle); higher = more p16Ink4a- cells surviving). Details: 1 µM; 3 days.

SMILES	GFP-
C[N+](C)(C)CCOC(=O)CCC(=O)OCC[N+](C)(C)C [Succinylcholine]	0.884
COc1cc2ncc(-c3ccccc3)nc2cc1OC [Tyrphostin AG]	0.792
Cc1c(Cl)cccc1Nc1ccccc1C(=O)O [Tolfenamic Acid]	1.16
C/C(=C\c1ccc(C(=O)O)cc1)c1ccc2c(c1)C(C)(C)CCC2(C)C	1.02
CCO/C(O)=C1\C(C)=NC(C)=C(C(=O)OC)C1c1cccc(Cl)c1Cl (centres undefined) [Felodipine]	0.531
C[C@@H]1O[C@@H](OC[C@H]2O[C@@H](Oc3c(-c4ccc(O)c(O)c4)oc4cc(O)cc(O)c4c3=O)[C@H](O)[C@@H](O)[C@@H]2O)[C@H](O)[C@H](O)[C@H]1O [Rutin]	1.05
Cc1cc(=O)oc2cc(O)ccc12 [7-hydroxy-4-methyl-2H-chromen-2-one]	1.08
CCc1cccc2c3c([nH]c12)[C@@](CC)(CC(=O)O)OCC3 [Etodolac]	1.06
OCCn1cc(-c2cnc3nnn(Cc4ccc5ncccc5c4)c3n2)cn1	0.998
Nc1ncnc2c1ncn2[C@@H]1O[C@H](CO)[C@@H](O)[C@@H]1O [Vidarabine]	1
CCC1=C(C)CN(C(=O)NCCc2ccc(S(=O)(=O)NC(=O)N[C@H]3CC[C@H](C)CC3)cc2)C1=O [Glimepiride]	1.36
COc1cc(NC(C)CCCN)c2ncccc2c1 (centres undefined) [Primaquine]	0.781
CCOc1ccc(NC(C)=O)cc1 [Phenacetin]	1.08
CCN(CC)CCOc1ccc(/C(=C(\Cl)c2ccccc2)c2ccccc2)cc1 [Clomiphene]	1.16
O=c1sn(-c2cccc3ccccc23)c(=O)n1Cc1ccccc1 [Tideglusib]	0.92
N#Cc1c(O)nc2scc(-c3ccc(-c4ccccc4O)cc3)c2c1O	1
CC(C)[N+]1(C)C2CCC1CC(OC(=O)C(CO)c1ccccc1)C2 (centres undefined) [Ipratropium Bromide]	1.03
Cn1cc(/C=C2/C(=O)Nc3cccnc32)c2ccccc21	1.18
CC[C@@H](CO)NCCN[C@@H](CC)CO [Ethambutol]	0.975
O=c1c(O)c(-c2ccc(O)cc2)oc2cc(O)cc(O)c12 [Kaempherol]	0.955
CCCCc1oc2ccccc2c1C(=O)c1cc(I)c(OCCN(CC)CC)c(I)c1 [Amiodarone]	0.9
COc1nc(C)nc(Cl)c1NC1=NCCN1 [Moxonidine, Moxonidine Hydrochloride]	1.04
COc1ccc(Cl)cc1C(=O)NCCc1ccc(S(=O)(=O)NC(=O)NC2CCCCC2)cc1 [Glibenclamide, Glyburide]	0.901
Cc1cc2c(F)c(Oc3ncnn4cc(OC[C@@H](C)O)c(C)c34)ccc2[nH]1 [Brivanib]	1.09
CC(C)(Cc1ccc2ccccc2c1)NC[C@@H](O)COc1cccc(Cl)c1C#N	1.11
S=C=Nc1cccc(NC(=S)NCCCCNC(=S)Nc2cccc(N=C=S)c2)c1	0.87
O=C(O)/C(Cc1ccccc1[N+](=O)[O-])=N/Nc1nc(-c2ccc(Cl)c(Cl)c2)cs1	1.11

SMILES	GFP-
O=c1cc(-c2ccccc2)oc2cc(O)cc(O)c12 [Chrysin]	0.996
O=c1cc(-c2cccc3c2Sc2ccccc2S3)oc(N2CCOCC2)c1 [ATM Kinase Inhibitor]	0.911
C[C@@H](Oc1cc(-c2cnn(C3CCNCC3)c2)cnc1N)c1c(Cl)ccc(F)c1Cl [Crizotinib]	0.915
CC[C@@H]1C(=O)N(C)c2cnc(Nc3ccc(C(=O)N[C@H]4CC[C@H](N5CCN(CC6CC6)CC5)CC4)cc3OC)nc2N1C(C)C [Volasertib]	0.773
CC(C(=O)O)c1ccc2c(c1)[nH]c1ccc(Cl)cc12 (centres undefined) [Carprofen]	1.03
CNC(=O)[C@H](Cc1c[nH]c2ccccc12)NC(=O)[C@@H](CC(=O)NO)CC(C)C	1.15
N#C/C(=C(/N)Sc1ccc(N)cc1)c1ccccc1C(F)(F)F	0.961
N=C(N)c1ccc(N=NNc2ccc(C(=N)N)cc2)cc1 [Diminazene]	0.868
CN1CCN(c2nc(C3=C(c4c[nH]c5ccccc45)C(=O)NC3=O)c3ccccc3n2)CC1 [Sotrastaurin]	0.861
NC(=O)c1cccc(N)c1 [3-aminobenzamide]	1.08 ± 0.15
CC(C)c1cc(-c2ccc(F)c3ccccc23)nc(N)n1	0.927
CC[C@H](Nc1ncnc2[nH]cnc12)c1nc2cccc(F)c2c(=O)n1-c1ccccc1 [Idelalisib]	0.99
CCCCCCCCCCCC[N+](C)(C)CCOc1ccccc1 [Domiphen]	0.836
COc1cc2ncnc(Oc3cccc(NC(=O)Nc4cc(C(C)(C)C(F)(F)F)on4)c3)c2cc1OC	1.04
CC(C)(C)c1nc(-c2cccc(NS(=O)(=O)c3c(F)cccc3F)c2F)c(-c2ccnc(N)n2)s1 [Dabrafenib]	0.448
Cc1c(NC(=O)OC[C@@H]2COCCN2)cn2ncnc(Nc3ccc4c(cnn4Cc4cccc(F)c4)c3)c12	0.927
Cc1nc(O)c(C#N)cc1-c1ccncc1 [Milrinone]	1.22
CC1=NN(c2ccccc2)C(=O)C1 [3-methyl-1-phenyl-2-pyrazolin-5-one (mci-186), Edaravone]	1.06
C=C1C(=O)O[C@@H]2/C=C(\C)CC/C=C(\C)CC[C@@H]12 [Costunolide]	1.1
CN(C)CC/C=C1/c2ccccc2Sc2ccc(Cl)cc21 [Chlorprothixene]	0.99
Cn1c(Nc2ccc(C(F)(F)F)cc2)nc2cc(Oc3ccnc(-c4nc(C(F)(F)F)c[nH]4)c3)ccc21	0.691
O=c1ccn([C@@H]2O[C@H](CO)[C@@H](O)[C@H]2O)c(=O)[nH]1 [Uridine]	0.961
OC[C@@H](O)[C@@H](O)[C@@H](O)CO [Ribitol]	0.997
CCN(CC)CCCC(C)Nc1nc(C)cc(Nc2ccc3nc(C)cc(N)c3c2)n1 (centres undefined)	0.971
Cc1cc(OCCCS(C)(=O)=O)cc(C)c1-c1cccc(COc2ccc3c(c2)OC[C@H]3CC(=O)O)c1	1.12
C1=C/COCc2cc(ccc2OCCN2CCCC2)Nc2nccc(n2)-c2cccc(c2)COC/1 [Pacritinib]	0.933 ± 0.029
COCC(=O)NC/C=C/c1ccc2ncnc(Nc3ccc(Oc4ccc(C)nc4)c(C)c3)c2c1	1.06

Looked up by compound from the list above:
SMILES	GFP-
CC[C@@H]1C(=O)N(C)c2cnc(Nc3ccc(C(=O)N[C@H]4CC[C@H](N5CCN(CC6CC6)CC5)CC4)cc3OC)nc2N1C(C)C [Volasertib]	0.773
N#C/C(=C(/N)Sc1ccc(N)cc1)c1ccccc1C(F)(F)F	0.961
OC[C@@H](O)[C@@H](O)[C@@H](O)CO [Ribitol]	0.997
O=c1cc(-c2ccccc2)oc2cc(O)cc(O)c12 [Chrysin]	0.996
Cc1cc(OCCCS(C)(=O)=O)cc(C)c1-c1cccc(COc2ccc3c(c2)OC[C@H]3CC(=O)O)c1	1.12

Carrying on.

SMILES	GFP-
Cc1c(C(=O)N2CCOc3ccc(-c4ccc(N)nc4)cc3C2)ccc(S(C)(=O)=O)c1F	0.901
CCc1c(C(=O)NCCc2ccc(N3CCCCC3)cc2)[nH]c2ccc(Cl)cc12	0.784
O=C1CCC[C@@H]2[C@H]3CCC[N+]4([O-])CCC[C@@H](CN12)[C@@H]34 (some centres undefined) [Oxymatrine]	1.08
Cc1ccc(C(=O)Nc2ccc(CN3CCN(C)CC3)c(C(F)(F)F)c2)cc1C#Cc1cnc2cccnn12 [Ponatinib]	0.714
CC(=O)c1cc([N+](=O)[O-])c(Sc2cccc(Cl)c2Cl)s1	1.02
O=C(NCCO[N+](=O)[O-])c1cccnc1 [Nicorandil]	1.14
NC(=O)C(c1ccccc1)(c1ccccc1)[C@@H]1CCN(CCc2ccc3c(c2)CCO3)C1 [Darifenacin]	1.18
Cc1[nH]c2ccccc2c1CCNC(=O)c1cccs1 [N-[2-(2-methyl-1H-indol-3-yl)ethyl]thiophene-2-carboxamide]	1.11
Cc1cc(/C=C/C#N)cc(C)c1Nc1ccnc(Nc2ccc(C#N)cc2)n1 [Rilpivirine]	1.12
COc1c(N2CCNC(C)C2)c(F)cc2c(=O)c(C(=O)O)cn(C3CC3)c12 (centres undefined) [Gatifloxacin]	1.05
C=CCN1CCCC1CNC(=O)c1cc2nn[nH]c2cc1OC (centres undefined) [Alizapride]	1.02
COc1ccccc1S(=O)(=O)Nc1ccc2c(c1)CN(C)C(=O)N2	1.15 ± 0.081
O=C(NC[C@H](O)CO)c1ccncc1Nc1ccc(I)cc1F [Pimasertib]	1.03
c1cn2cc(-c3ccc4c[nH]nc4c3)nc(Nc3ccc(N4CCOCC4)cc3)c2n1	0.938
O=c1c(O)c(-c2ccc(O)c(O)c2)oc2cc(O)ccc12 [Fisetin]	1.01
C[C@@H](NCCc1ccc(O)cc1)[C@@H](O)c1ccc(O)cc1 [Ritodrine HCl]	1.1
CO[C@H]1/C=C/O[C@@]2(C)Oc3c(C)c(O)c4c(O)c(c(/C=N/N5CCN(C6CCCC6)CC5)c(O)c4c3C2=O)NC(=O)/C(C)=C\C=C\[C@H](C)[C@H](O)[C@@H](C)[C@@H](O)[C@@H](C)[C@H](OC(C)=O)[C@@H]1C [Rifapentine]	0.995
CCN1CCN(Cc2ccc(Nc3ncc(F)c(-c4cc(F)c5nc(C)n(C(C)C)c5c4)n3)nc2)CC1	0.983
CC[C@]1(O)C[C@@H]2CN(CCc3c([nH]c4ccccc34)[C@@](C(=O)OC)(c3cc4c(cc3OC)N(C)[C@@H]3C45CCN4CC=C[C@](CC)([C@H]45)[C@@H](OC(C)=O)[C@]3(O)C(=O)OC)C2)C1 (some centres undefined) [Vinblastine]	0.635
CC[C@H](C)C(=O)O[C@H]1CCC=C2C=C[C@H](C)[C@H](CC[C@@H]3C[C@@H](O)CC(=O)O3)[C@H]21 [Mevastatin]	0.766
NC(=O)Cc1cccc(C(=O)c2ccccc2)c1N [Nepafenac]	1.08
Cc1onc(-c2c(Cl)cccc2Cl)c1C(=O)N[C@@H]1C(=O)N2[C@@H]1SC(C)(C)[C@@H]2C(=O)O [Dicloxacillin]	0.966
C=C1CC[C@H](O)C/C1=C/C=C1\CCC[C@]2(C)[C@@H]([C@H](C)/C=C/[C@H](C)C(C)C)CC[C@@H]12 [Ergocalciferol]	1.06
Cn1cnc2c(F)c(Nc3ccc(Br)cc3Cl)c(C(=O)NOCCO)cc21 [Selumetinib]	0.838
O=C(O)c1cc(N=Nc2ccc(S(=O)(=O)Nc3ccccn3)cc2)ccc1O [Sulfasalazine]	1.15
